# Values from PubChem BioAssay AID743121 (NCATS, 2013).
# Purpose: 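Knock-downs that sensitise breast cancer cells to camptothecin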 (primary screen)
# Cells: MDA-MB-231 cells, a human breast cancer line
# Reagent: single siRNA against human genes, 20 nM siRNA (0.8 pmol per well)
# Timing: 120 h (drug added 48 h after transfection, read 72 h later)
# Conditions: camptothecin 20 nM (about EC30) for 72 h; vehicle 0.1% DMSO in parallel plates
# Measurement: 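Cell viability by ATP luminescence (CellTiter-Glo) as % of non-targeting siRNA wells, and the log2 ratio of viability without drug over viability with camptothecin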
# Scale: log2 vehicle/camptothecin viability: higher = stronger sensitisation to camptothecin; viability with camptothecin and viability without drug: higher = more viable cells
# Call rule: 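Each gene scored by redundant siRNA activity (RSA) over its individual siRNA ratios; a gene is called active at p < 0.001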
# Here is one part, drawn at random, of about 26,000 reagents tested. Over the whole deposit, 167 (0.63%) are marked active. 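Calls are per gene from RSA p-values that are not deposited; an individual active-marked siRNA can sensitise only weakly.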 Unmarked entries are inactive. The numbers tell different reagents against one gene apart.
Gene,siRNA no.,log2 vehicle/camptothecin viability,viability with camptothecin (% of control),viability without drug (% of control)
JMJD6,1,1.74,6.04,20.1
JMJD6,2,-0.431,76.4,56.6
JMJD6,3,0.32,53.5,66.8
JMJD6,4,-0.0191,103,102
DAD1,1,0.324,80.5,101
DAD1,2,0.528,47.1,67.9
DAD1,3,-0.307,61.7,49.9
TRIM51,1,-0.615,96,62.6
TRIM51,2,-0.0216,62.7,61.7
TRIM51,3,-0.00318,64.5,64.4
TRIM51,4,-0.587,60.1,40

Records listed so far whose target name begins with T or t:
Gene,siRNA no.,log2 vehicle/camptothecin viability,viability with camptothecin (% of control),viability without drug (% of control)
TRIM51,1,-0.615,96,62.6
TRIM51,2,-0.0216,62.7,61.7
TRIM51,3,-0.00318,64.5,64.4
TRIM51,4,-0.587,60.1,40

Next entries:
Gene,siRNA no.,log2 vehicle/camptothecin viability,viability with camptothecin (% of control),viability without drug (% of control)
RDH5,1,-0.477,88.2,63.4
RDH5,2,1.13,20.1,44
RDH5,3,0.0851,49.4,52.4
RDH5,4,0.381,25.3,33
CELA1,1,-0.31,91.6,73.9
CELA1,2,-0.0366,97.1,94.7
CELA1,3,-0.322,47.3,37.9
CELA1,4,-0.168,75.8,67.5
JAZF1,1,-0.222,113,97.2
JAZF1,2,-0.217,34.1,29.4
JAZF1,3,-0.111,99.5,92.1
JAZF1,4,0.279,69.1,83.9
POLR2M,1,-0.243,117,98.6
POLR2M,2,-0.14,112,101
POLR2M,3,-0.125,91.8,84.2
POLR2M,4,-0.361,65.2,50.7
POLR2M,5,-0.146,109,98.9
POLR2M,6,-0.203,119,103
POLR2M,7,-0.111,111,103
POLR2M,8,-0.643,115,73.9
